No constants are given. Whether binding was seen depends on the method and setting. Binding seen in cells or lysates may run through a third protein. Some results given as binding are weak or reduced against the parent protein; the word gives no strength.
Tests used:
[1] = target: AviGFP-tagged p150^Glued (full length) (UniProt P28023); test: pull-down; Avi-tag pull down of in vivo biotinylated Avi-tagged baits from HEK293T cells, harsh washing; Western blot for endogenous p62 and Arp1
[2] = target: p150^Glued (endogenous, HEK293T) (human (endogenous in HEK293T)) (UniProt Q14203); test: co-IP; endogenous p150^Glued with endogenous subunits of the dynactin-dynein complex from HEK293T lysates; cells treated with an mTOR inhibitor or transfected with pEGFPC1 or pEGFPC1-p50

The chains behind the UniProt entries cited, without tags or fusion partners.
UniProt P28023: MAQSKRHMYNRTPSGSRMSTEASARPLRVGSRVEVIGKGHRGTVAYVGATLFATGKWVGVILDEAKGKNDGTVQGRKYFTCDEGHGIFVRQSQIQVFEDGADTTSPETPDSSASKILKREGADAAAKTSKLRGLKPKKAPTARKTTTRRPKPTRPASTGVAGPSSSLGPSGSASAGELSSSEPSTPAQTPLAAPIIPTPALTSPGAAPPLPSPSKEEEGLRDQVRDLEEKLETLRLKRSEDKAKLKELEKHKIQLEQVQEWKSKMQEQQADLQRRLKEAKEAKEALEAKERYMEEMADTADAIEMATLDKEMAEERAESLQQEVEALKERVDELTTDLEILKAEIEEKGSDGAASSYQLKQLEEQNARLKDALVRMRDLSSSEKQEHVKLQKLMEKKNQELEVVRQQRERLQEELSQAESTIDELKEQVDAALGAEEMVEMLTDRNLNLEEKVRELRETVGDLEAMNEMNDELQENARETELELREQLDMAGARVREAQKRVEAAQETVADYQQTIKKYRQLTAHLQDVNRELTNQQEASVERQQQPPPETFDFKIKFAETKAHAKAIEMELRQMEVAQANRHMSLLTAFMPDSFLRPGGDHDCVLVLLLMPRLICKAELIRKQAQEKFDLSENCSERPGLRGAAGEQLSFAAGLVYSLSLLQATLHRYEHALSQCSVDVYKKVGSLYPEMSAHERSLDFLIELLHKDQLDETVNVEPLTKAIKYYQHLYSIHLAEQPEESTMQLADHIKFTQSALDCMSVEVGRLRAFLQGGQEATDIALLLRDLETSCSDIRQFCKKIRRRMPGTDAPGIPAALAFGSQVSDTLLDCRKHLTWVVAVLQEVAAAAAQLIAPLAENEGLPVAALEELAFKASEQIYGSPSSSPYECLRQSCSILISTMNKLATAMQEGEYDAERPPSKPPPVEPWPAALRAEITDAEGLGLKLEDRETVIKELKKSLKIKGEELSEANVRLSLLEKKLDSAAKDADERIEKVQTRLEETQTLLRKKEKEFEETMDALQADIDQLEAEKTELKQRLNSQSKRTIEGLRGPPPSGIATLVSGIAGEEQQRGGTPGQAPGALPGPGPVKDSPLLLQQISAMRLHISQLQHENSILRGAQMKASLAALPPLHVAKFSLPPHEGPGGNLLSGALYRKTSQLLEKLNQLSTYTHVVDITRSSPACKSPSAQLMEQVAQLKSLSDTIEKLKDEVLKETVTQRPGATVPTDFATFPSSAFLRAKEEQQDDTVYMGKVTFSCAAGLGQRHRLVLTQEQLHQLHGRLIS
UniProt Q14203: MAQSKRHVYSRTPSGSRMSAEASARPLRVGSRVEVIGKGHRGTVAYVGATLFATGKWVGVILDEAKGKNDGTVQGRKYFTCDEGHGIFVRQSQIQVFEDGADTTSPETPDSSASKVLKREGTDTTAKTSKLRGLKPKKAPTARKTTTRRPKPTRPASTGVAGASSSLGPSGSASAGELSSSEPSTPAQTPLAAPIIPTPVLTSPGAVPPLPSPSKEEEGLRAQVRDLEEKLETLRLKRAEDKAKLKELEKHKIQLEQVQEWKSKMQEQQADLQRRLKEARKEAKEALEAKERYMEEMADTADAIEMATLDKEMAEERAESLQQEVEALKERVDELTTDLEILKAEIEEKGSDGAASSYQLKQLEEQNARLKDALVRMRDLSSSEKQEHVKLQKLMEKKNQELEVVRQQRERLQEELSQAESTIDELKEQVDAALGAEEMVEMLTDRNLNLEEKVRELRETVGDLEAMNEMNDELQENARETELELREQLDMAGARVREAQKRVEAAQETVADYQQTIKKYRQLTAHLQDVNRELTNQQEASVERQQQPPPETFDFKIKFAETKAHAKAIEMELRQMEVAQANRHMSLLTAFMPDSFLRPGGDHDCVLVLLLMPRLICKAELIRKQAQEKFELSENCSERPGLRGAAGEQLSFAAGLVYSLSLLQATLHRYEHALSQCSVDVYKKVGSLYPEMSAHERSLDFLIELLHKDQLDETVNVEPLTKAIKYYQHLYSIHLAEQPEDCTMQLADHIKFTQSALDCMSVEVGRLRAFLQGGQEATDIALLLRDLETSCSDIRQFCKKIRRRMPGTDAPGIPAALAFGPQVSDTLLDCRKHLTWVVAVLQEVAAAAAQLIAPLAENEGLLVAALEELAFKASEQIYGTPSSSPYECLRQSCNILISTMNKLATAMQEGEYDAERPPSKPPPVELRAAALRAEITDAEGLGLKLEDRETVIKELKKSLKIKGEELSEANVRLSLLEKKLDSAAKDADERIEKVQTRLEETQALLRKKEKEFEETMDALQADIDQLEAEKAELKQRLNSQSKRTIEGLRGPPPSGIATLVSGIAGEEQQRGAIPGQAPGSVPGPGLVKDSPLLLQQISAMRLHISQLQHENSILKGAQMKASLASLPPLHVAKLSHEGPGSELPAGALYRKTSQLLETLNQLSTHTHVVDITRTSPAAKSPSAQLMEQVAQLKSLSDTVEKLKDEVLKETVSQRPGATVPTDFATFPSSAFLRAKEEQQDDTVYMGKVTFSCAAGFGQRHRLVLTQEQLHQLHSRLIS
UniProt Q9UJW0: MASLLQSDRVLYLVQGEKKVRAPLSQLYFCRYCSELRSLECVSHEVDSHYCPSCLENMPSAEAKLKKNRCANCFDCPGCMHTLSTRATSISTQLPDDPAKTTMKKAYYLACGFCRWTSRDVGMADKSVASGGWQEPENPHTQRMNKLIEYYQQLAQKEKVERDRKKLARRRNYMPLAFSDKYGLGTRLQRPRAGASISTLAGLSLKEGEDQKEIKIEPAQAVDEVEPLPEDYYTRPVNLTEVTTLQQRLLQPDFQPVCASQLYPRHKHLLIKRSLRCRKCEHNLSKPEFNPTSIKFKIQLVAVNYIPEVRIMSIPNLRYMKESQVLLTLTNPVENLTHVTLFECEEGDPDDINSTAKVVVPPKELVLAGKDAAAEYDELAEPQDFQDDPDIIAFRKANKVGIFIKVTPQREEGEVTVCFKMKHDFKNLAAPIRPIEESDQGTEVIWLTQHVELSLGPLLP

binding [1]: binds
binding [2]: binds
Substance: p62 (dynactin Arp1-rod protein, endogenous, HEK293T) (from UniProt Q9UJW0 1-460)
